PubChem BioAssay AID1259291 | Sanger Institute, 2017

Assay: 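Find kinase and colorectal-cancer-mutated genes whose loss kills HT29 cells or aids anchor drugs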 (primary screen)
System: HT29 human colorectal cancer cells
Knock-down reagent: siRNA pool against human genes
Treatment: anchor drugs added a day after transfection: BYL719 at 1 µM, cetuximab at 5 µg/ml or trametinib at 10 nM, or DMSO vehicle alone
Measurement: 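Replicate-averaged viability relative to non-targeting pool, robust z-score based on control wells, plus per-drug synergy score for 1 µM BYL719, 5 µg/ml cetuximab and 10 nM trametinib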
Reading the numbers: robust z-score, knock-down alone and viability, knock-down alone: higher = more viable cells
Units: viability, knock-down alone in fraction of control
Call rule: 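a knock-down alone scoring under -3 on robust z-score is called essential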
Meaning of the calls: active = essential (knock-down alone); inactive = no change alone
The deposit covers 794 reagents; shown is a part drawn at random. Over the whole deposit, 15 (1.9%) were called active. 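Calls rest on knock-down alone; drug synergy scores do not affect them; drugs added a day post-transfection, DMSO vehicle as comparison.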 Unmarked entries are inactive. Viability is capped at 1. Not all columns of the deposit are shown. Reagent sequences are not shown. Not given: the amount of reagent, the time to read-out.

PRKAR1B (GeneID 5575) — robust z-score, knock-down alone: 0.552; viability, knock-down alone: 1
GRK5 (GeneID 2869) — robust z-score, knock-down alone: 0.552; viability, knock-down alone: 1
TAF1L (GeneID 138474) — robust z-score, knock-down alone: -0.59; viability, knock-down alone: 0.929
FGFR2 (GeneID 2263) — robust z-score, knock-down alone: -0.961; viability, knock-down alone: 0.906
ROR2 (GeneID 4920) — robust z-score, knock-down alone: -1.62; viability, knock-down alone: 0.865
SRMS (GeneID 6725) — robust z-score, knock-down alone: -0.178; viability, knock-down alone: 0.955
MINK1 (GeneID 50488) — robust z-score, knock-down alone: 0.552; viability, knock-down alone: 1
PCBP1 (GeneID 5093) — robust z-score, knock-down alone: 0.552; viability, knock-down alone: 1
PIK3R3 (GeneID 8503) — robust z-score, knock-down alone: 0.107; viability, knock-down alone: 0.972
PRP4K (GeneID 8899) — robust z-score, knock-down alone: -0.401; viability, knock-down alone: 0.941
NME4 (GeneID 4833) — robust z-score, knock-down alone: -0.701; viability, knock-down alone: 0.922
GOLGA5 (GeneID 9950) — robust z-score, knock-down alone: 0.356; viability, knock-down alone: 0.988
ADK (GeneID 132) — robust z-score, knock-down alone: 0.552; viability, knock-down alone: 1
CEP290 (GeneID 80184) — robust z-score, knock-down alone: 0.552; viability, knock-down alone: 1
TNNI3K (GeneID 51086) — robust z-score, knock-down alone: 0.552; viability, knock-down alone: 1
TAOK1 (GeneID 57551) — robust z-score, knock-down alone: 0.552; viability, knock-down alone: 1
STK25 (GeneID 10494) — robust z-score, knock-down alone: 0.552; viability, knock-down alone: 1
RUNX1 (GeneID 861) — robust z-score, knock-down alone: 0.552; viability, knock-down alone: 1
PHKB (GeneID 5257) — robust z-score, knock-down alone: 0.31; viability, knock-down alone: 0.985
IKBKG (GeneID 8517) — robust z-score, knock-down alone: 0.552; viability, knock-down alone: 1
HK2 (GeneID 3099) — robust z-score, knock-down alone: -1.47; viability, knock-down alone: 0.874
DIS3 (GeneID 22894) — robust z-score, knock-down alone: 0.552; viability, knock-down alone: 1
CAMKK2 (GeneID 10645) — robust z-score, knock-down alone: 0.552; viability, knock-down alone: 1
STK32C (GeneID 282974) — robust z-score, knock-down alone: 0.552; viability, knock-down alone: 1
IDH2 (GeneID 3418) — robust z-score, knock-down alone: 0.552; viability, knock-down alone: 1
MAP3K9 (GeneID 4293) — robust z-score, knock-down alone: 0.552; viability, knock-down alone: 1
ACVR1C (GeneID 130399) — robust z-score, knock-down alone: 0.552; viability, knock-down alone: 1
MAP3K21 (GeneID 84451) — robust z-score, knock-down alone: 0.552; viability, knock-down alone: 1

Entries listed so far whose gene name starts with I or i (2):
IKBKG (GeneID 8517) — robust z-score, knock-down alone: 0.552; viability, knock-down alone: 1
IDH2 (GeneID 3418) — robust z-score, knock-down alone: 0.552; viability, knock-down alone: 1
